# Primary screen of a compound library

Amino acid sequences for entries named in this document (tags omitted).
UniProt E9BF75, entry or part of it: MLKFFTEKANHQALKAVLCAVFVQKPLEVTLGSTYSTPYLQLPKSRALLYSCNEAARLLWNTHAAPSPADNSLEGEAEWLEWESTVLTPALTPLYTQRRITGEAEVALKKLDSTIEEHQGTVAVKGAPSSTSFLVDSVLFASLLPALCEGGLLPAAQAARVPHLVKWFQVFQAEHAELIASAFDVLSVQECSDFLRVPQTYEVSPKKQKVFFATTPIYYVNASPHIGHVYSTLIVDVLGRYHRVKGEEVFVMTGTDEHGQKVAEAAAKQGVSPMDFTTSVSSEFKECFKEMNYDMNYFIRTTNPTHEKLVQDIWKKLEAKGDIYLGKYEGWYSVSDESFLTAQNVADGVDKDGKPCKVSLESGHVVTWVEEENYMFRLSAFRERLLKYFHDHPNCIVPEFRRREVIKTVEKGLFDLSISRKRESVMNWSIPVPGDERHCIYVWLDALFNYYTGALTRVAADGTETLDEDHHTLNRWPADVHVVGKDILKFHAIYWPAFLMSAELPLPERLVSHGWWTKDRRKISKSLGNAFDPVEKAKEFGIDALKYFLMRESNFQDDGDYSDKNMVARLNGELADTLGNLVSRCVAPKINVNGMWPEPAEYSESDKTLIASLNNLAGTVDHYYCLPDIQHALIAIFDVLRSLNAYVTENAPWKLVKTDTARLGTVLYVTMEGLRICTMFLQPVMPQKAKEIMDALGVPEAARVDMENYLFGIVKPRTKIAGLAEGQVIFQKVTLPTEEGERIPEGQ

All values are in %. The controls that fix the scale are not given in the record; negative values are as filed. This is an unselected part of the compounds tested. A dash means the value is not listed here; it may have been measured.

LdMetRS: 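Primary screen of methionyl-tRNA synthetase; the read-out is not stated. Target: Methionyl-tRNA synthetase (putative), Leishmania donovani (UniProt E9BF75). The test concentration is not given. Values are per cent inhibition. Size under these conditions: about 68,000 compounds, about 24 of them at 50% or above in at least one test.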
Mtb heat-shock: 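Assay on Mycobacterium tuberculosis, filed only as a heat shock assay from Cornell; the read-out is not stated. The concentration is filed as 10 mM, unlikely as a test dose, so the dose is not known. Direction is inferred from retests: higher values go with stronger inhibition. About 69,000 compounds were tested under these conditions; 1.4% (about 930) showed 50% or more at least once.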

compound,LdMetRS,Mtb heat-shock
Cc1occc1C(=O)NCC(=O)N(C)CCCOc1ccccc1,5.396,-10.98
CC(C)N1CCC(O)(CNC(=O)CC2OCCc3ccccc32)CC1 (stereo not shown),9.524,-17.54
CCOc1ccc(C(=O)CCC(=O)NCc2csc(N)n2)cc1C,8.696,3.034
CCc1ccc(S(=O)(=O)Nc2c(C)cccc2C(=O)O)s1,13.39,18.77
Cc1nc(C)c(CC(=O)N2CCN(CC(C)C)CC2)c(=O)[nH]1,18.21,-3.609
Cc1nn(C)c(C)c1CNC(=O)CCn1ncc2c(Cl)cccc21,-25.88,-6.046
COc1cc(CNC2CCCc3c2cnn3C)cc(OC)c1 (stereo not shown),11.11,-
Cc1c(C2=NS(=O)(=O)N(C)C(C(=O)Nc3ccc(Br)cc3)=C2)cnn1C,0.5249,8.985
c1cnn(CC2CN(CC3CCCC3)CCO2)c1 (stereo not shown),17.36,-4.691
CCc1nc(C2CCCN2CC(=O)NCCc2ccsc2)no1 (stereo not shown),20.11,3.984
O=C(c1ccccc1C1CCNC1)N1CCC(N2CCC(O)CC2)CC1 (stereo not shown),15.68,-9.751
COc1cc(CN2CCC(NC(=O)c3cccn3C)C2)cc(OC)c1 (stereo not shown),12.24,-18.97
[H][C@@]12CCCN1CCCN(c1nc(-c3ccco3)nc3c1CCNCC3)C2,-,-8.509
O=C(c1ccco1)N1CC[C@@H]2CN(C3CCOCC3)CCO[C@@H]2C1,11.14,-
CCN1CCN(c2ccc(C(=O)NC(C)c3ccncc3)cc2)CC1 (stereo not shown),13.06,-8.367
Cn1cc(C2COC3(CCN(C(=O)c4ccccn4)CC3)C2)cn1 (stereo not shown),6.965,-
CCc1ccc(C(O)CN2CCN(c3cccc(OC)c3)CC2)cc1 (stereo not shown),0.5831,9.318
CCn1c(CN2CCCC(Cn3cncn3)C2)nc2c(F)cccc21 (stereo not shown),13.77,10.45
COc1cccc(S(=O)(=O)NC(=O)CCC2CCCC2)c1,5.413,97.07
Cn1cc(C2CCCN2C(=O)CCCOc2ccc(F)cc2)cn1 (stereo not shown),10.06,-22.11
Cc1ncsc1C(=O)NCCN1CCCCCC1=O,3.096,-13.09
Cc1ccccc1[C@@H]1CN(Cc2c(C)noc2C)C[C@H]1C(=O)O,5.484,-14.53
C=C(C)Cn1nc(C)c(CN2CCN(C3CCCCC3)C(=O)C2)c1C,8.721,-17.59
Cc1cccc(C(=O)NCc2ccnc(N(C)C)c2)n1,4.167,1.061
CC(C)CN1CCCn2nc(CNC(=O)CN3CCOC3=O)cc2C1,3.425,-0.7457
CCc1cc(C(F)(F)F)n2nc(C3CCCN3C3CCSCC3)cc2n1 (stereo not shown),16.46,-
CC(=O)N1CCCN(C(C(=O)O)c2ccccc2OC(F)(F)F)CC1 (stereo not shown),11.04,-15.25
CCCc1cc(C(=O)N2C[C@H]3CCC[C@@]3(CO)C2)[nH]n1,3.896,-
O=C(O)C(F)(F)F.O=C(O)C(F)(F)F.[H][C@@]12CN(Cc3ccc(F)cc3)C[C@]1([H])OCCN2Cc1c(C)noc1C,-,-6.13
Cc1cc(NC(C)c2n[nH]c(C)n2)n2nc(C)c(C)c2n1 (stereo not shown),9.756,44.95
O=c1cc(C2CCNCC2)nc(CCCc2ccccc2)[nH]1,1.25,-23.62
OCCCN(CCc1cccc(F)c1)C1CC1,7.165,-6.817
O=C1N[C@@H]2CCN(C(=O)C3CC3)[C@@H]2C(=O)N1c1ccc(F)cc1,2.747,-
Cc1n[nH]c2ncc(CNC3CCCN(c4ncccn4)C3)cc12.Cl (stereo not shown),-,-36.13
c1coc(CN2CCCn3c(nnc3Cn3cccn3)C2)c1,0.625,-
Cc1ccc(NCc2cncc3c2CCN(Cc2ccccn2)C3)nn1,13.78,-
CC(C)c1nnc(NC(=O)Cc2csc(-c3nnc[nH]3)n2)s1,11.85,-26.24
c1cn(-c2nccnc2C2CCCN(C3CCOCC3)C2)cn1 (stereo not shown),5.814,-11.33
COc1ncccc1CN1CCC2(CC1)CN(c1ccccn1)CCO2,10.75,-
Cn1nc(CNC(=O)c2ccc3nsnc3c2)c2c1CCOC2,7.726,1.402
CCCn1nnnc1CN(CC)CC1COc2ccccc2O1 (stereo not shown),9.244,-4.948
CNC(=O)c1nc2c(s1)CCN(C(=O)c1ccc(OC)cc1)CC2,13.33,6.196
O=C(Nc1cccnc1)C1=Cc2ccccc2OC1,14.25,-14.91
CC(=O)NCCNc1nc(C2CCCC2)nc2c1cnn2C,7.801,-23.44
O=C(c1ccc(F)c(F)c1)N1CCCC1CN1CCCC1 (stereo not shown),4.225,3.396
CC(C)[C@H]1COC(=O)N1Cc1nccn1C(C)C,1.795,-31.62
CCn1ccnc1CN1CCN(C(C)C(=O)NC2CCCCC2)CC1 (stereo not shown),2.041,-0.5734
CC(=O)NC1CCCN(Cc2csc(-c3ncccn3)n2)C1 (stereo not shown),9.206,-39.61
Nc1nc2c(c(N3CCCC(c4nnc5ccccn45)C3)n1)CCNC2 (stereo not shown),15.38,13.29
COc1cc(C)cc(C(C(=O)O)N(C)Cc2cnn(C)c2)c1OC (stereo not shown),8.075,-18.97

The first 4 entries again:

- Cc1occc1C(=O)NCC(=O)N(C)CCCOc1ccccc1 | LdMetRS: 5.396%; Mtb heat-shock: -10.98%
- CC(C)N1CCC(O)(CNC(=O)CC2OCCc3ccccc32)CC1 (stereo not shown) | LdMetRS: 9.524%; Mtb heat-shock: -17.54%
- CCOc1ccc(C(=O)CCC(=O)NCc2csc(N)n2)cc1C | LdMetRS: 8.696%; Mtb heat-shock: 3.034%
- CCc1ccc(S(=O)(=O)Nc2c(C)cccc2C(=O)O)s1 | LdMetRS: 13.39%; Mtb heat-shock: 18.77%

Data taken from ChEMBL document CHEMBL3988442, “University of Dundee, Small-Polar-MMV Screening Library” (2021).